Measured values: patent US4657891A, “Diuretic peptide, and production and use thereof” (Suntory Limited, priority 1984, dated 1987)
Not every detail of the peptide structures is certain; ends, links or a residue may be inferred.

Test system: Male rats
Assay: Another test: relative amounts of urine, Na+, K+, Cl- for 30 minutes before and after administration (Table 3)
Type: in vivo, rat
Settings: hANP 0.4 n mol

In the case of `CC[C@H](C)[C@@H]1NC(=O)[C@H](CCCNC(=N)N)NC(=O)[C@H](CC(=O)O)NC(=O)[C@H](CCSC)NC(=O)[C@H](CCCNC(=N)N)NC(=O)CNC(=O)CNC(=O)[C@H](Cc2ccccc2)NC(=O)[C@@H](NC(=O)[C@H](CO)NC(=O)[C@H](CO)NC(=O)[C@H](CCCNC(=N)N)NC(=O)[C@H](CCCNC(=N)N)NC(=O)[C@H](CC(C)C)NC(=O)[C@@H](N)CO)CSSC[C@@H](C(=O)N[C@@H](CC(N)=O)C(=O)N[C@@H](CO)C(=O)N[C@@H](Cc2ccccc2)C(=O)N[C@@H](CCCNC(=N)N)C(=O)N[C@@H](Cc2ccc(O)cc2)C(=O)O)NC(=O)CNC(=O)[C@H](CC(C)C)NC(=O)CNC(=O)[C@H](CO)NC(=O)[C@H](CCC(N)=O)NC(=O)[C@H](C)NC(=O)CNC1=O` [hANP, α-human atrial natriuretic polypeptide, reference compound], the “Cl^- Excretion, percentage after relating to before” value is reported as 872 ± 112%, the “K^+ Excretion, percentage after relating to before” value is reported as 138 ± 7% and the “Na^+ Excretion, percentage after relating to before” value is reported as 911 ± 154%. The “Urine volume, percentage after relating to before” value was 557 ± 104%.
